Experimental findings from article PMC4370877 are described below.

The target in assay [1] is recombinantly expressed Aap domain-A (rDomain-A) (S. epidermidis). Nature of the assay: affinity purification with mass spectrometry; recombinant Aap domain (rDomain-B, or rDomain-A as control) coupled to a HiTrap NHS-activated Sepharose column; crude biofilm matrix preparation of S. epidermidis 1457 in PBS loaded, 30 min at room temperature; washed (PBS pH 7.4 by the results), eluted with Tris-HCl (pH 2 by the results); fractions by SDS-PAGE and silver staining, bands identified by ESI-MS; only the target purified.

Assay [2] concerns the target recombinantly expressed Aap domain-B (rDomain-B) (S. epidermidis). Described as above.

These are yes or no findings as the source states them, for the method shown. Binding seen in cells or lysates may run through a third protein. Here binding means that the protein was enriched with, or labelled near, the bait; the list need not be complete. For some assays here: A no says only that the protein was not detected with the bait.

B1: S. epidermidis major Autolysin AtlE, from biofilm matrix (protein, UniProt Q5HQB9 30-1335)
chain: AEQPQNQSNHKNVLDDQTALKQAEKAKSEVTQSTTNVSGTQTYQDPTQVQPKQDTQSTTYDASLDEMSTYNEISSNQKQQSLSTDDANQNQTNSVTKNQQEETNDLTQEDKTSTDTNQLQETQSVAKENEKDLGANANNEQQDKKMTASQPSENQAIETQTASNDNESQQKSQQVTSEQNETATPKVSNTNASGYNFDYDDEDDDSSTDHLEPISLNNVNATSKQTTSYKYKEPAQRVTTNTVKKETASNQATIDTKQFTPFSATAQPRTVYSVSSQKTSSLPKYTPKVNSSINNYIRKKNMKAPRIEEDYTSYFPKYGYRNGVGRPEGIVVHDTANDNSTIDGEIAFMKRNYTNAFVHAFVDGNRIIETAPTDYLSWGAGPYGNQRFINVEIVHTHDYDSFARSMNNYADYAATQLQYYNLKPDSAENDGRGTVWTHAAISNFLGGTDHADPHQYLRSHNYSYAELYDLIYEKYLIKTKQVAPWGTTSTKPSQPSKPSGGTNNKLTVSANRGVAQIKPTNNGLYTTVYDSKGHKTDQVQKTLSVTKTATLGNNKFYLVEDYNSGKKYGWVKQGDVVYNTAKAPVKVNQTYNVKAGSTLYTVPWGTPKQVASKVSGTGNQTFKATKQQQIDKATYLYGTVNGKSGWISKYYLTTASKPSNPTKPSTNNQLTVTNNSGVAQINAKNSGLYTTVYDTKGKTTNQIQRTLSVTKAATLGDKKFYLVGDYNTGTNYGWVKQDEVIYNTAKSPVKINQTYNVKPGVKLHTVPWGTYNQVAGTVSGKGDQTFKATKQQQIDKATYLYGTVNGKSGWISKYYLTAPSKVQALSTQSTPAPKQVKPSTQTVNQIAQVKANNSGIRASVYDKTAKSGTKYANRTFLINKQRTQGNNTYVLLQDGTSNTPLGWVNINDVTTQNIGKQTQSIGKYSVKPTNNGLYSIAWGTKNQQLLAPNTLANQAFNASKAVYVGKDLYLYGTVNNRTGWIAAKDLIQNSTDAQSTPYNYTFVINNSKSYFYMDPTKANRYSLKPYYEQTFTVIKQKNINGVKWYYGQLLDGKYVWIKSTDLVKEKIKYAYTGMTLNNAINIQSRLKYKPQVQNEPLKWSNANYSQIKNAMDTKRLANDSSLKYQFLRLDQPQYLSAQALNKLLKGKGVLENQGAAFSQAARKYGLNEIYLISHALVETGNGTSQLAKGGDVSKGKFTTKTGHKYHNVFGIGAFDNNALVDGIKYAKNAGWTSVSKAIIGGAKFIGNSYVKAGQNTLYKMRWNPANPGTHQYATDINWANVNAQVLKQFYDKIGEVGKYFEIPTYK
As for B1, the binding result is on record as “no binding” in assay [1] and “binds” in assay [2].
